These are yes or no findings as the source states them, for the method shown. Binding seen in cells or lysates may run through a third protein. These calls come from enrichment with a bait or labelling near it, and not all partners need be listed. Sequences can lack the tags named with a protein.
Biological target: T1, Flag-SNW1 (human) (UniProt Q13573)
T1 sequence: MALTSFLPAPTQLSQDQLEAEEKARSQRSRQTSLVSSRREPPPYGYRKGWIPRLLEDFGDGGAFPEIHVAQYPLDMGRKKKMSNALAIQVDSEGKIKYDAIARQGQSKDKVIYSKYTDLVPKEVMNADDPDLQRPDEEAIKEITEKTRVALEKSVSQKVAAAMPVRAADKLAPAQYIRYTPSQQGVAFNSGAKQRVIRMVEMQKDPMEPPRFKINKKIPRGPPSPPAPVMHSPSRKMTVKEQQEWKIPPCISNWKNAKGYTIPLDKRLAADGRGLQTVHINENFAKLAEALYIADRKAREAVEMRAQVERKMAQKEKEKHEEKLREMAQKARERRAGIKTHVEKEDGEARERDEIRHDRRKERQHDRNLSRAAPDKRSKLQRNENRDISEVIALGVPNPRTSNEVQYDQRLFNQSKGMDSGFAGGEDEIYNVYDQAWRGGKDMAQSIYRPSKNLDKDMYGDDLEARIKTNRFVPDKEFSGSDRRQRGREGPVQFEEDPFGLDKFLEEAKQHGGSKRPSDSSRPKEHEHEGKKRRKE
Assay: affinity purification with mass spectrometry; 293T cells constitutively expressing Flag-SNW1 lysed, immunoprecipitated with anti-Flag antibody, eluted with Flag peptide, trypsin digest, LC-MS/MS, Mascot

Sequences of proteins named here, by UniProt entry; tags and fusion partners are left off.
UniProt O75643: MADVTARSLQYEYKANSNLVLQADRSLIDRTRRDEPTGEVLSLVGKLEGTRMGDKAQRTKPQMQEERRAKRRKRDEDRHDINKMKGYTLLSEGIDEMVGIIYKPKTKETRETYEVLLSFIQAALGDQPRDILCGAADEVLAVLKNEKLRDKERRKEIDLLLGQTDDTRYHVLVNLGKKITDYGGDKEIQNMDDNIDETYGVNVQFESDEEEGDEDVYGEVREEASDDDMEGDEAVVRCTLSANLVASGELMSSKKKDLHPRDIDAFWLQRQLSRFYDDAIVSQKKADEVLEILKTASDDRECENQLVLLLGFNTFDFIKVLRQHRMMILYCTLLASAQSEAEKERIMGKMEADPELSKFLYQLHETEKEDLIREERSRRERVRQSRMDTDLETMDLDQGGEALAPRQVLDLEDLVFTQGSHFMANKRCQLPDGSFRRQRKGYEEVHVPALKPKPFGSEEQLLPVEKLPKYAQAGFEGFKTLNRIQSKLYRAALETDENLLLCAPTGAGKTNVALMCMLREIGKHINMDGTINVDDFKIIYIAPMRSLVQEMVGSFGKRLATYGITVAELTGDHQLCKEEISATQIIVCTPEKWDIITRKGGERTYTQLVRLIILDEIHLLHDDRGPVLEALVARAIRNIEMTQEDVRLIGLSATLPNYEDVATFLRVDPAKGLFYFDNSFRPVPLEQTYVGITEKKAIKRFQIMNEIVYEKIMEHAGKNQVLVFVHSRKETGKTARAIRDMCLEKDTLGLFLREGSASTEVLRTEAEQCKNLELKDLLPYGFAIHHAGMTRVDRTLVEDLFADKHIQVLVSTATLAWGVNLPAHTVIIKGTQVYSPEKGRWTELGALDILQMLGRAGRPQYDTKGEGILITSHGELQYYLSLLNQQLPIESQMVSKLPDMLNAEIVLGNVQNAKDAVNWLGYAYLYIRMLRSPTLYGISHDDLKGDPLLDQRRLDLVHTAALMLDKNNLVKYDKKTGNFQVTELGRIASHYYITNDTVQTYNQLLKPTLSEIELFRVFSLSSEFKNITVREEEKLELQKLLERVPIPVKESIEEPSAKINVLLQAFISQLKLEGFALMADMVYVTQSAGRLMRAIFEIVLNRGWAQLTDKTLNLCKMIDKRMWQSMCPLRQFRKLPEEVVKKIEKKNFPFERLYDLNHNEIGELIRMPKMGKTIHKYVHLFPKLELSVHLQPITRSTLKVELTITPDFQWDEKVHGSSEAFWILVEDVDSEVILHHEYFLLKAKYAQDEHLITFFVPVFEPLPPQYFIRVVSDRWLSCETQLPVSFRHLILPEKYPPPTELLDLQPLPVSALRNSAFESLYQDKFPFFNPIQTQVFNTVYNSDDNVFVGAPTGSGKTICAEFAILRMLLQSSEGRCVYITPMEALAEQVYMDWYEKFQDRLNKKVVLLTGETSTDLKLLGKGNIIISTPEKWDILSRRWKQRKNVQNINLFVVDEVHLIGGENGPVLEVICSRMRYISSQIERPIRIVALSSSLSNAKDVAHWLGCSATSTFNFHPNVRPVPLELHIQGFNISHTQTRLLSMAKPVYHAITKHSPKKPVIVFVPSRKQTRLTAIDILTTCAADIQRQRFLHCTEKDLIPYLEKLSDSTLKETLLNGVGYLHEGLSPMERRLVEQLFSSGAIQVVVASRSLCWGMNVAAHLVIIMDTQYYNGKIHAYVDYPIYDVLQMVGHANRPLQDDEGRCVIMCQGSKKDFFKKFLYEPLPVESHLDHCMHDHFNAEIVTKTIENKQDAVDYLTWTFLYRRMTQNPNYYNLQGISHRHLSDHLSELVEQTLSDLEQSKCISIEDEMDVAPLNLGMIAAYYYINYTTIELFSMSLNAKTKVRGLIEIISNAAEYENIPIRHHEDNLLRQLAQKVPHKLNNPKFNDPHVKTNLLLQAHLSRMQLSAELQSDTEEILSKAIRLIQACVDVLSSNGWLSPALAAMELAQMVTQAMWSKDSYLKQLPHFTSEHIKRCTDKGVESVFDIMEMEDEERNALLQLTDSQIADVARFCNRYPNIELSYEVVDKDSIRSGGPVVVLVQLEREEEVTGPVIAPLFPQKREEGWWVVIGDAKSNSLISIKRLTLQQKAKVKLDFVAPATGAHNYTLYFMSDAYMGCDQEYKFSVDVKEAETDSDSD

In the case of “SNRNP200 (endogenous) (from UniProt O75643 1-2136)”, the binding is reported as “binds”.

Source: paper PMC4329010
